# Reference: PubChem BioAssay AID2685 (National Center for Advancing Translational Sciences (NCATS), 2010)
# The other results are listed elsewhere or left out. These are further read-outs of the screen, such as a control signal, another cell line or another target. No call is given for them. Compounds called inactive in the main read-out are mostly missing here. Potencies come from curve fits of mixed quality, noted in brackets.
# Assay: qHTS Assay for Lipid Storage Modulators in Drosophila S3 Cells;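 as to cell number change: cells counted by Cell Tracker Red CMTPX staining in the red channel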
# Conditions: BODIPY lipid droplet fluorescence, 18-24 h; for cell number change: measured here: cell count max response, cells fed with added oleic acid
# How it was run: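 Laser-scanning cytometry quantifies lipid droplet accumulation (500–530 nm total intensity; droplet/cell object ratio) in oleic acid-fed (400 uM added) Drosophila S3 cells treated with a concentration series. 20 uM Triacsin C defined 100% inhibition.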
# [1] = measured here: cell number channel AC50, cells fed with added oleic acid
# [2] = measured here: lipid fluorescence (Fed channel) AC50, cells fed with added oleic acid
structure (smiles),measurement,setting,value
O=C(COC(=O)CCc1nc2ccccc2c(=O)[nH]1)NC(=O)NC1CCCC1,cell number change,,-50%
same,AC50,[1],"23.1 µM [falling, single point]"
same,AC50,[2],"6.51 µM [falling, single point]"
COc1ccc(NC(=O)c2ccc(C(=O)c3cc(OC)ccc3OC)cc2)cc1,cell number change,,-11.2%
same,AC50,[1],"0.00517 µM [falling, partial curve, poor fit]"
COc1ccc(CCC(=O)N2CCCc3ccccc32)cc1,cell number change,,-22.2%
same,AC50,[2],"29.1 µM [falling, single point]"
CCC(C)NC(=O)Cn1cc(S(=O)(=O)N2CCN(c3ccccc3F)CC2)c2ccccc2c1=O (stereo not drawn),cell number change,,14.2%
same,AC50,[1],"0.092 µM [rising, partial curve, poor fit]"
O=C1C=CC(=O)N1c1ccc(N2CCCCC2)cc1,cell number change,,-59.3%
same,AC50,[1],"7.31 µM [falling, partial curve]"
same,AC50,[2],"20.6 µM [falling, single point]"
COc1cc(NC(=O)c2nccn2C)cc(C(=O)Nc2cccc(C(F)(F)F)c2)c1,cell number change,,-32.4%
same,AC50,[1],"29.1 µM [falling, single point]"
same,AC50,[2],"32.6 µM [falling, single point]"
COCCOC(=O)C1=C(C)NC2=C(C(=O)CC(C)(C)C2)C1c1ccc(N(C)C)cc1 (stereo not drawn),cell number change,,-6.03%
same,AC50,[2],"2.91 µM [falling, single point]"
Cc1cc(C)cc(NC(=O)c2snc3c(=O)[nH]cnc23)c1,cell number change,,-66.1%
same,AC50,[1],"32.6 µM [falling, single point]"
same,AC50,[2],"29.1 µM [falling, single point]"
CC1(c2ccccc2)CC(C)(C)N2C(=O)C3(C(C#N)=C(N)Oc4cc(O)ccc43)c3cccc1c32 (stereo not drawn),cell number change,,-89.8%
same,AC50,[1],"18.4 µM [falling, single point]"
same,AC50,[2],"29.1 µM [falling, single point]"
COC(=O)c1c(-c2ccccc2OC)sc2ccc(OC)cc12,cell number change,,-9.15%
same,AC50,[2],"4.11 µM [falling, single point]"
CCN(CC)S(=O)(=O)c1ccc(NS(=O)(=O)c2ccc(O)c([N+](=O)[O-])c2)cc1,cell number change,,-34.6%
same,AC50,[1],"0.00461 µM [falling, full curve, poor fit]"
same,AC50,[2],"6.51 µM [falling, single point]"
Cc1ccc(Nc2nc(N/N=C/c3c[nH]c4ccccc34)nc(N3CCOCC3)n2)cc1,cell number change,,-23.2%
same,AC50,[2],"16.4 µM [falling, partial curve, poor fit]"
Cc1ccn2c(=O)nc(SCC(=O)N3CCC(Cc4ccccc4)CC3)nc2c1,cell number change,,-3.06%
same,AC50,[2],"0.651 µM [falling, full curve]"
OCC1(CCc2ccccc2)CCN(Cc2ccc(OC(F)F)cc2)CC1,cell number change,,17.5%
same,AC50,[2],"0.259 µM [rising, full curve, poor fit]"
CCOC(=O)c1c(C2CC2)csc1NC(=O)COC(=O)c1cc(OC)c(OC)cc1[N+](=O)[O-],cell number change,,-33.5%
same,AC50,[1],"2.06 µM [falling, full curve]"
same,AC50,[2],"2.06 µM [falling, full curve]"
CSc1ccccc1NC(=O)C1CCCO1 (stereo not drawn),cell number change,,-3.95%
same,AC50,[2],"4.61 µM [falling, full curve, poor fit]"
Cc1cc(NC(=O)C2CCCCC2)n(-c2nc3ccccc3[nH]2)n1,cell number change,,-9.45%
same,AC50,[1],"2.59 µM [rising, partial curve, poor fit]"
same,AC50,[2],"5.8 µM [rising, partial curve, poor fit]"
O=C(COc1ccccc1Cl)Nc1ccc(C(=O)N2CCCCC2)cc1,cell number change,,3.16%
same,AC50,[2],"0.58 µM [rising, single point]"
CCNc1nc2ccccc2[nH]1,cell number change,,-24.8%
same,AC50,[2],"0.146 µM [falling, full curve]"
Cc1ccc(S(=O)(=O)N2CCN(C(=O)COC(=O)c3cccc(Cl)c3)CC2)c(C)c1,cell number change,,2.72%
same,AC50,[2],"29.1 µM [falling, single point]"
CCCNC(=O)c1cc(-c2ccc(OC)cc2)on1,cell number change,,46.4%
same,AC50,[1],"8.2 µM [rising, partial curve]"
COc1ccc(OCCOCCOc2ccc(C)cc2[N+](=O)[O-])cc1,cell number change,,23.9%
same,AC50,[2],"5.17 µM [rising, partial curve]"
COc1ccccc1NC(=O)CCc1nnc2ccc(N3CCN(C)CC3)nn12,cell number change,,-181%
same,AC50,[1],"25.9 µM [falling, partial curve]"
Fc1cccc(Cl)c1Cn1nnc2c(-n3ccnc3)ncnc21,cell number change,,-10.5%
same,AC50,[2],"0.326 µM [rising, partial curve, poor fit]"
O=C(N/N=C/c1ccc[nH]1)c1ccccc1OCc1ccccc1Cl,cell number change,,73.3%
same,AC50,[1],"1.16 µM [rising, full curve]"
same,AC50,[2],"1.84 µM [rising, partial curve]"
NCC(c1ccco1)c1c[nH]c2ccccc12 (stereo not drawn),cell number change,,3.86%
Cc1nnc(SCC(=O)NCc2ccc(Cl)cc2)[nH]c1=O,cell number change,,5.86%
same,AC50,[2],"1.84 µM [falling, full curve, poor fit]"
O=C1NNC(=O)C2C3C=CC(C4CC34)C12 (stereo not drawn),cell number change,,-2.86%
same,AC50,[1],"0.00411 µM [falling, full curve, poor fit]"
Oc1ccc(Br)cc1-c1cc(-c2ccccc2F)[nH]n1,cell number change,,-13.2%
CCOc1ccc(NC(=O)c2ccc(NC(=S)NC3CC3)cc2)cc1,cell number change,,19.4%
same,AC50,[2],"0.58 µM [rising, single point]"
O=C(O)c1nc(Cl)c(Cl)c(N/N=C/c2ccccc2C(F)(F)F)c1Cl,cell number change,,23%
CCC(C)(C)NC(=O)C(c1ccc(C)cc1)N(Cc1ccco1)C(=O)Cn1nnc2ccccc21 (stereo not drawn),cell number change,,-27.7%
same,AC50,[2],"10.3 µM [falling, partial curve]"
NC(=O)c1ccccc1OCC(=O)NS(=O)(=O)c1ccc(Cl)cc1,cell number change,,-36.9%
same,AC50,[1],"16.4 µM [falling, partial curve, poor fit]"
same,AC50,[2],"0.231 µM [falling, full curve]"
O=C(Nc1cccc(-c2cccc(Cl)c2)c1)C1CCN(Cc2ccccn2)CC1,cell number change,,-24.2%
same,AC50,[2],"29.1 µM [falling, single point]"
CCCCNC(=O)c1c[nH]c2ccc(S(=O)(=O)Nc3ccc(OCC)cc3)cc2c1=O,cell number change,,-47.9%
same,AC50,[1],"25.9 µM [falling, single point]"
same,AC50,[2],"18.4 µM [falling, single point]"

# An excerpt of these results, as tab-separated lines:
structure (smiles)	measurement	setting	value
Cc1nnc(SCC(=O)NCc2ccc(Cl)cc2)[nH]c1=O	cell number change		5.86%
same	AC50	[2]	1.84 µM [falling, full curve, poor fit]

# Another view of part of the listing above.
structure (smiles)	measurement	setting	value
COCCOC(=O)C1=C(C)NC2=C(C(=O)CC(C)(C)C2)C1c1ccc(N(C)C)cc1 (stereo not drawn)	AC50	[2]	2.91 µM [falling, single point]
Cc1cc(C)cc(NC(=O)c2snc3c(=O)[nH]cnc23)c1	cell number change		-66.1%
